{"source": "PubChem BioAssay (NCATS)", "note": "The other results are listed elsewhere or left out. These are further read-outs of the screen, such as a control signal, another cell line or another target. No call is given for them. Compounds called inactive in the main read-out are mostly missing here. The note in brackets gives the kind of curve behind each potency; many fits are weak.", "data": [{"assay": "qHTS for identification of novel therapeutic agents for treatment of microphthalmiaassociated transcription factor (MiT) renal cell carcinoma (RCC) (AID 1963991)", "conditions": "TFE3-RCC viability, CellTiter-Glo, 48 h; measured here: UOK124 cell viability", "outline": "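Viability of three TFE3-fusion renal carcinoma lines measured by CellTiter-Glo after 48 h treatment with each of 1912 compounds at 11 concentrations. Responses scaled between DMSO (100%) and empty wells (0%) before curve fitting.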", "values": [{"smiles": "CC(=O)c1c(C)c2cnc(Nc3ccc(N4CCNCC4)cn3)nc2n(C2CCCC2)c1=O", "AC50": "29.6 µM [falling, partial curve]"}, {"smiles": "CC(C)=CCCC(C)=CCCC(C)=CCSc1ccccc1C(=O)O", "AC50": "6.62 µM [falling, partial curve]"}, {"smiles": "CC1(O)CC(c2nc(-c3ccc4ccc(-c5ccccc5)nc4c3)c3c(N)nccn23)C1", "note": "(centres undefined)", "AC50": "20.9 µM [falling, partial curve]"}, {"smiles": "CC(=O)N1CCN(c2ccc(OCc3nn(C)c(C)c3-c3cccc4c(CCCOc5cc(C)c(Cl)c(C)c5)c(C(=O)O)n(Cc5cccnc5)c34)cc2)CC1", "AC50": "33.2 µM [falling, single point]"}, {"smiles": "CN(C)CCOc1ccc(-c2nc(-c3ccc4c(c3)CCC4=NO)c(-c3ccncc3)[nH]2)cc1", "AC50": "20.9 µM [falling, partial curve]"}, {"smiles": "CC1CCN(c2cc(N3CCN(C)CC3)ccc2NC(=O)c2cc(C#N)c[nH]2)CC1", "AC50": "18.7 µM [falling, partial curve, poor fit]"}, {"smiles": "CC(C)c1c(C(=O)Nc2ccccc2)c(-c2ccccc2)c(-c2ccc(F)cc2)n1CC[C@H](O)C[C@@H](O)CC(=O)O", "AC50": "11.8 µM [falling, partial curve]"}, {"smiles": "C=Cc1c(C)c2cc3nc(cc4[nH]c(cc5nc(cc1[nH]2)C(C)=C5CCC(=O)O)c(CCC(=O)OC)c4C)[C@@]1(C)C3=CC=C(C(=O)OC)[C@H]1C(=O)OC", "AC50": "2.96 µM [falling, full curve]"}, {"smiles": "O=S(=O)(NCCNCC=Cc1ccc(Br)cc1)c1cccc2cnccc12", "AC50": "20.9 µM [falling, partial curve]"}]}]}
